Measured data: PubChem BioAssay AID1259307 (Sanger Institute, 2017)

Test: 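Screen of kinase gene silencing for colorectal cancer cell killing and drug cooperation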 (primary screen)
Cells: SW620 colorectal cancer cells
Reagents: siRNA pool against human genes
Treatment: anchor drugs BYL719 at 1 µM, cetuximab at 5 µg/ml or trametinib at 10 nM, each beside a DMSO vehicle arm
Detection: 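Per-well viability versus non-targeting control pool, replicate-averaged, robust z-score from controls; synergy scores for BYL719 1 µM, cetuximab 5 µg/ml, trametinib 10 nM against DMSO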
Reading the numbers: viability robust z-score, no drug and viability vs control, no drug: higher = more viable cells
Call rule: 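Essential when the viability robust z-score without drug is under -3; synergy scores are ignored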
Calls: active = essential (lethal alone); inactive = no change alone
The whole screen tested 794 reagents; below is an unselected part. 15 of them (1.9%) were called active. 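Calls reflect lethality without any drug; synergy scores did not enter the calls.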 Entries without a mark were called inactive. No viability above 1 is reported: the scale is capped. Further read-outs or replicates are left out here. Not given: the amount of reagent, the time to read-out.

Which result is listed for N4BP2?
viability robust z-score, no drug: 0.306; viability vs control, no drug: 0.96

Which result is listed for CHEK1?
viability robust z-score, no drug: -1.27; viability vs control, no drug: 0.815

For LIMK1, how do the results read?
viability robust z-score, no drug: 0.736; viability vs control, no drug: 1

What did the screen give for SRP72?
viability robust z-score, no drug: 0.146; viability vs control, no drug: 0.946

Which result is listed for MARK3?
viability robust z-score, no drug: 0.307; viability vs control, no drug: 0.96

For ACSL6, what does the deposit list?
viability robust z-score, no drug: 0.736; viability vs control, no drug: 1

With MAP4K4, what was measured?
viability robust z-score, no drug: 0.736; viability vs control, no drug: 1

What is on record for RPS6KA5?
viability robust z-score, no drug: -0.971; viability vs control, no drug: 0.842

With PGK2, how do the results read?
viability robust z-score, no drug: 0.736; viability vs control, no drug: 1

For IGF1R, what does the deposit list?
viability robust z-score, no drug: 0.566; viability vs control, no drug: 0.984

With POMK, what was measured?
viability robust z-score, no drug: 0.271; viability vs control, no drug: 0.957

For CTNNB1, how do the results read?
viability robust z-score, no drug: -1.67; viability vs control, no drug: 0.778

Which result is listed for SYK?
viability robust z-score, no drug: -0.0783; viability vs control, no drug: 0.925

For IRAK1, what does the deposit list?
viability robust z-score, no drug: -0.754; viability vs control, no drug: 0.862

What is on record for IRAK3?
viability robust z-score, no drug: -0.505; viability vs control, no drug: 0.886

What did the screen give for PIP4K2B?
viability robust z-score, no drug: 0.736; viability vs control, no drug: 1

For CEP290, what was measured?
viability robust z-score, no drug: 0.736; viability vs control, no drug: 1

What is on record for RBM10?
viability robust z-score, no drug: -2.04; viability vs control, no drug: 0.743

With COMMD3, what was measured?
viability robust z-score, no drug: 0.736; viability vs control, no drug: 1

2 consecutive records from above, for reference:
SYK — viability robust z-score, no drug: -0.0783; viability vs control, no drug: 0.925
IRAK1 — viability robust z-score, no drug: -0.754; viability vs control, no drug: 0.862
